Laboratory results reported in PMC12413633.
These are yes or no findings as the source states them, for the method shown. Binding seen in cells or lysates may run through a third protein. Some results given as binding are weak or reduced against the parent protein; the word gives no strength. For some of these results: Tags and fused reporters may be left off the sequences shown.

The chains behind the UniProt entries cited, without tags or fusion partners. Where a name states a change or a piece, a line headed by the entry shows the natural chain unless it says otherwise. A line that says so, or that is headed by a name, gives the form on record, which may keep a tag or linker.
UniProt O60282: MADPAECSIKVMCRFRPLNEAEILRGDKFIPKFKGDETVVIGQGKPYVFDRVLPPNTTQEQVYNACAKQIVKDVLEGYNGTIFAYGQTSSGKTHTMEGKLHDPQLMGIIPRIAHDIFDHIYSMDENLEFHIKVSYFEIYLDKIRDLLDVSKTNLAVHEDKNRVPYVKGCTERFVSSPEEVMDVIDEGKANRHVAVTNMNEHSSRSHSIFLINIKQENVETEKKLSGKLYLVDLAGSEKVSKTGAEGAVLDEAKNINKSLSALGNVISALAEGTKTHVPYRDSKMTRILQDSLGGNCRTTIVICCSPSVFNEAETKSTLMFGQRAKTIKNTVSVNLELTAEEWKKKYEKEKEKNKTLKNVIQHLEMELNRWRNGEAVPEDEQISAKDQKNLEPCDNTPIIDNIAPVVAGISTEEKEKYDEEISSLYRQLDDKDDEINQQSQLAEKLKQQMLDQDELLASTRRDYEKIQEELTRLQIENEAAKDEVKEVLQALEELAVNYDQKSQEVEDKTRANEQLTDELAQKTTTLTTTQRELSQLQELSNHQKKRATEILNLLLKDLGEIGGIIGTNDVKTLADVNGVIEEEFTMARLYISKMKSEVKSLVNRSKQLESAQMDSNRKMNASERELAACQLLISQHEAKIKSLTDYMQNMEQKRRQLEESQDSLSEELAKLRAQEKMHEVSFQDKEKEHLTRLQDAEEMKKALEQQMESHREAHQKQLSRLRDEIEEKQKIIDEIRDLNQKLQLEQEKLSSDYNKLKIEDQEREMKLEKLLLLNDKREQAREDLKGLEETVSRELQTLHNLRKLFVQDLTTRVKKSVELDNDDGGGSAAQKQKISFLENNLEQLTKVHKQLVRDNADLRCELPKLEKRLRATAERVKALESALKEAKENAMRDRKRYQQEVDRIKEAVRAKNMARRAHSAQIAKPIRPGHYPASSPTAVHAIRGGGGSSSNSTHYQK
human DDK-MAP2B S1782E (P11137-1, form named): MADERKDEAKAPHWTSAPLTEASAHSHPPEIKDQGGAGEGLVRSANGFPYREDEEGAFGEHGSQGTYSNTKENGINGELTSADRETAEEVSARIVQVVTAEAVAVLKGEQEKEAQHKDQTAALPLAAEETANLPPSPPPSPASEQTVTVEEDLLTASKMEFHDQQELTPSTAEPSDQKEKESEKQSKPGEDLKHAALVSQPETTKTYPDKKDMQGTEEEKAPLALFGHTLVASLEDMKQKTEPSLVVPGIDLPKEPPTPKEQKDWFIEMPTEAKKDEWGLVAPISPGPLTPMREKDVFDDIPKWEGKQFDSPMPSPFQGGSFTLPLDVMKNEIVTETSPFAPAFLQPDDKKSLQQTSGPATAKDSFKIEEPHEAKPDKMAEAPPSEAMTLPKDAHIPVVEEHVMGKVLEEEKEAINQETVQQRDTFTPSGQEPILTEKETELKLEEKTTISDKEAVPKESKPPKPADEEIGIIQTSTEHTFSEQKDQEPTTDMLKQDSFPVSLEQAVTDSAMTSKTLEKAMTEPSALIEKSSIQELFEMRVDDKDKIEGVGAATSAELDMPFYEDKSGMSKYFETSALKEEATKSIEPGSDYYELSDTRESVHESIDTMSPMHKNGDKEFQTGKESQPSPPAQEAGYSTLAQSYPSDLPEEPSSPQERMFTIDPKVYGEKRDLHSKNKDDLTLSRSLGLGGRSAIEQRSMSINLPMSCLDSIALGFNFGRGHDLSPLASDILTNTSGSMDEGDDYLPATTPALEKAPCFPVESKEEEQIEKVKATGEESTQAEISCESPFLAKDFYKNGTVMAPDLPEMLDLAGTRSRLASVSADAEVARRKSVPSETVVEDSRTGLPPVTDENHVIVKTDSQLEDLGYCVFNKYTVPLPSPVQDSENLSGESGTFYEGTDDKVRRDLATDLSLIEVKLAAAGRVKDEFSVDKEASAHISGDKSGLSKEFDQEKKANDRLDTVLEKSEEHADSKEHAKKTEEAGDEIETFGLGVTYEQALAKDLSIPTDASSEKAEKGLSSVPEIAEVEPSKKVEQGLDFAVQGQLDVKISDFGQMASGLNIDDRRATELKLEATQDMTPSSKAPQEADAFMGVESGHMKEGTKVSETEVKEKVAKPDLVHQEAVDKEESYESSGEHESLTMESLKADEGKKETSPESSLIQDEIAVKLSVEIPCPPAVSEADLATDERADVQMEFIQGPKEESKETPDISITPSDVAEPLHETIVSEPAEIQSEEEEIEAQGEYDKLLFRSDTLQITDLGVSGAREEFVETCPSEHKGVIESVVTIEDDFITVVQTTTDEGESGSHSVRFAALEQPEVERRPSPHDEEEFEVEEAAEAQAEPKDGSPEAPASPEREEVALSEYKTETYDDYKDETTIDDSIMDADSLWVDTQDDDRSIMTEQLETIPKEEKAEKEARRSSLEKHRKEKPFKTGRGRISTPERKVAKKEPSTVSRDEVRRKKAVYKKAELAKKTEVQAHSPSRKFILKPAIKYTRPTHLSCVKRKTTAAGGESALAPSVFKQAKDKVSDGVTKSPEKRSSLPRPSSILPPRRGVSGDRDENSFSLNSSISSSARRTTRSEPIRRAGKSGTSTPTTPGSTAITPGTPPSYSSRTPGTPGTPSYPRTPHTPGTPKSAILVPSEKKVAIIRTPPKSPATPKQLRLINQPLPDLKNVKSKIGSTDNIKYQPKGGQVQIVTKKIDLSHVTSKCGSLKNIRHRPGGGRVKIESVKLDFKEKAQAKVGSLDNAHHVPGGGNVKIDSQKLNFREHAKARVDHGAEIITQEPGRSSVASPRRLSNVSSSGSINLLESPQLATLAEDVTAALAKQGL

What was measured:
Test in all cases: co-IP; HEK 293 cells transfected with MAP2B WT or S1782E and a Myc-tagged interactor; lysate in 20 mM Tris-HCl pH 7.5, 150 mM NaCl, 1 % Triton X-100; Myc-antibody magnetic beads; western blot for MAP2 (HM-2) and Myc, densitometry
[1] = molecular target: human KIF5C-Myc-DDK protein (human) (UniProt O60282)
[2] = molecular target: T1, human PPM1L-Myc protein (human) (UniProt Q5SGD2)
T1 sequence: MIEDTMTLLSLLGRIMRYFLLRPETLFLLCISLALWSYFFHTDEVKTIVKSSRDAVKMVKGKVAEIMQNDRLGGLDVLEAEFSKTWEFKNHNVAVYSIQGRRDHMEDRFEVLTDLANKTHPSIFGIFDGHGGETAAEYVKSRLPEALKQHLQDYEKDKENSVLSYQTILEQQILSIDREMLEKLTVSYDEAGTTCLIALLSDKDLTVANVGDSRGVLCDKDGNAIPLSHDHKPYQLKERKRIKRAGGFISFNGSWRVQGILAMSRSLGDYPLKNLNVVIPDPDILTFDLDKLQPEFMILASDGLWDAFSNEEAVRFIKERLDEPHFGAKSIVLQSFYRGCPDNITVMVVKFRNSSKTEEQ

[3] = molecular target: T2, human KLHL8-Myc-DDK protein (human) (UniProt Q9P2G9)
T2 sequence: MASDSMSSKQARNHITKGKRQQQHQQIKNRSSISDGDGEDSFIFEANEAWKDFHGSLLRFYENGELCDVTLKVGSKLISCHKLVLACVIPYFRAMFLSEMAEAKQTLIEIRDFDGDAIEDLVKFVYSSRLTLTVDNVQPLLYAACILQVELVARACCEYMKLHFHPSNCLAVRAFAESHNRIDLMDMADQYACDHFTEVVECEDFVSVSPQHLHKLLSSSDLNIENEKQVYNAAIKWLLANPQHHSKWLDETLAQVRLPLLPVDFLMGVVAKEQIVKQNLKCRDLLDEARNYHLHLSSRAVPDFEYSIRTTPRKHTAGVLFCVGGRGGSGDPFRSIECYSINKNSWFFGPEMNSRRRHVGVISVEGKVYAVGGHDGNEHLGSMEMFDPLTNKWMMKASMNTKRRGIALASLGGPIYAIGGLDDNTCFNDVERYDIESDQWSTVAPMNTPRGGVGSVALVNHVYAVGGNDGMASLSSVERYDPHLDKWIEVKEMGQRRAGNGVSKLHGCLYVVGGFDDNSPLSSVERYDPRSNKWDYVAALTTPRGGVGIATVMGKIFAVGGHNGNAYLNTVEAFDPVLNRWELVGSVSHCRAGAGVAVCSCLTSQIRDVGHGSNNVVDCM

| binding [1] | binding [2] | binding [3] | Substance |
| --- | --- | --- | --- |
| binds |  |  | human wild type DDK-MAP2B (from UniProt P11137-1 1-1827) |
| binds | binds | binds | human DDK-MAP2B S1782E (from UniProt P11137-1 1-1827) |
